For at least one compound, name, drawing or mass did not settle the structure.
Test system: Dextran Sulfate-induced Colitis of Mice
Assay: Dextran sulfate-induced colitis of mice, disease score
Type: in vivo, Balb/c mice
Conditions: 10 pg single inhibitor i.p. on three successive days from day 5; day 7; slight, but insignificant

For N[C@@H](CCCCNC(=O)OCc1ccc([N+](=O)[O-])cc1)C(=O)N1CCCC1 [Lys[Z(NO2)] pyrrolidide], the “reduction of the heaviness of the disease (score)” value was “—12.3%”.

From patent publication US20070037785A1, “Novel dipeptidyl peptidase IV inhibitors used for functionally influencing different cells and treating immunological, infammatory, neuronal, and other diseases” (priority 2003, published 2007)
